This passage reports step yield results from patent US20200339632 (published 2020).

The data set can be described thus: general procedure: solution-phase peptide synthesis; PyBOP; MoO2Cl2/4-nitrobenzoic anhydride; VO(OTf)2/2,6-dinitrobenzoic anhydride. The settings on record: coupling step.

As to “Fmoc-Asp(O^tBu)-D-Phe-ACHA-Arg(Mtr)-Gly-OCH3”, the step yield turned out to be 68% yield.
